Experimental data as given in patent publication US20250382657A1, “METHODS FOR MAPPING BINDING SITES OF COMPOUNDS” (Cambridge Enterprise Limited, priority 2022, published 2025).

Tested on: U2OS cells
Test: Cell imaging of nuclear enrichment (fluorescence microscopy)
Assay type: cell-based, human
Settings: live U2OS cells, 1 μM, 6 hs

Structure (SMILES) | cellular localisation
COc1cccc2c1C(=O)c1c(O)c3c(c(O)c1C2=O)C[C@@](O)(C(=O)COC(=O)CCCC(=O)NCCOCCOCCOCCOCCNC(=O)CCCC[C@H]1SC[C@H]2NC(=O)N[C@H]21)C[C@@H]3O[C@H]1C[C@H](N)[C@H](O)[C@H](C)O1 [Dox-bio1] | predominantly accumulated in the nuclei
COc1cccc2c1C(=O)c1c(O)c3c(c(O)c1C2=O)C[C@@](O)(C(=O)CO)C[C@@H]3O[C@H]1C[C@H](NC(=O)CCOCCOCCOCCOCCNC(=O)CCCC[C@@H]2SC[C@@H]3NC(=O)N[C@@H]32)[C@H](O)[C@H](C)O1 [Dox-bio2] | mainly located in the cytoplasm
COc1cccc2c1C(=O)c1c(O)c3c(c(O)c1C2=O)C[C@@](O)(C(=O)CO)C[C@@H]3O[C@H]1C[C@H](N)[C@H](O)[C@H](C)O1 [doxorubicin] | predominantly accumulated in the nuclei
